No constants are given. Whether binding was seen depends on the method and setting. In cells and extracts the contact can be indirect. A result given as binding can be weak or reduced; the word gives no strength.
Key:
CLN8 (transfected, HeLa) = CLN8 (transfected, HeLa) (UniProt Q9UBY8); assay: co-IP; IP with an anti-Myc antibody from HeLa cells transfected for 24 hours; parental, KCTD7-deficient, CLN5 KD or CLN5-overexpressing cells
CLN6 (transfected, HeLa) = molecular target: T1, CLN6 (transfected, HeLa) (UniProt Q9NWW5); assay: as above
T1 sequence: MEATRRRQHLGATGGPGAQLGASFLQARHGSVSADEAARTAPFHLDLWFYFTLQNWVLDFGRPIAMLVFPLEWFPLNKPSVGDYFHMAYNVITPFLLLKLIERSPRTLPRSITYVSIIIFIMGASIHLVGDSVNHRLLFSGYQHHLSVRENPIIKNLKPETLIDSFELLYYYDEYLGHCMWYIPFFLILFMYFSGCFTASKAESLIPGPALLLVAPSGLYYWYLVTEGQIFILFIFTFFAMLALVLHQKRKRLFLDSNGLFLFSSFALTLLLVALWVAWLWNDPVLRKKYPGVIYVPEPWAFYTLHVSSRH

Chains of the proteins cited; added tags and fusions are not shown. Lines headed by an entry give the natural chain unless they say otherwise; changes in a name come on top.
UniProt Q9UBY8: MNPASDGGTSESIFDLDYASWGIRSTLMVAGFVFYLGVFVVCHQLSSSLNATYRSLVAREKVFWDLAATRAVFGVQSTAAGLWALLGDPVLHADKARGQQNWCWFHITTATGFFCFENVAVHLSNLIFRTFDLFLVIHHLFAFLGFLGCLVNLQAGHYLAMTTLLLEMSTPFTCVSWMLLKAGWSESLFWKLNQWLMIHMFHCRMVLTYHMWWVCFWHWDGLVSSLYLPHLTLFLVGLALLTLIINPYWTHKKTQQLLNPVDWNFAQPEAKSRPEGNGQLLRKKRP
UniProt O14773: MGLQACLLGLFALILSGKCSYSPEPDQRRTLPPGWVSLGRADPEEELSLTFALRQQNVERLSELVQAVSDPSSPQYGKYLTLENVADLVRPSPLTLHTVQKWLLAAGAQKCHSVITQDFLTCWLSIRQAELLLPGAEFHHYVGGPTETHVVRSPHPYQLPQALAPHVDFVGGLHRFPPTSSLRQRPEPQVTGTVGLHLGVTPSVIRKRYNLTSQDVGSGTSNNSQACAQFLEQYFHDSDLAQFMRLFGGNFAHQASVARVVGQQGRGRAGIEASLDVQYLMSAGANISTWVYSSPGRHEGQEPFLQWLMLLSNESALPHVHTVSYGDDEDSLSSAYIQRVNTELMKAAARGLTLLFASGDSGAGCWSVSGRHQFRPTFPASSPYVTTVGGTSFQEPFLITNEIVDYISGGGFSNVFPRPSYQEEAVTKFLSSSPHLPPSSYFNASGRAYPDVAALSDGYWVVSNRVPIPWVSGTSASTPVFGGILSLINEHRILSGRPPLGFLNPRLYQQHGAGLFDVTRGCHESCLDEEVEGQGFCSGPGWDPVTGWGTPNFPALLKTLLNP

TPP1 (transfected, HeLa) (from UniProt O14773) (enzyme)
binding (CLN8 (transfected, HeLa)): binds | binding (CLN6 (transfected, HeLa)): binds

From publication PMC9348797
